Test results taken from publication PMC11535546.
Results are given in words; binding and its absence hold for the method and conditions named. Binding seen in cells or lysates may run through a third protein. Here binding means that the protein was enriched with, or labelled near, the bait; the list need not be complete.

Chains of the proteins cited; added tags and fusions are not shown. Lines headed by an entry give the natural chain unless they say otherwise; changes in a name come on top.
UniProt Q86WV6: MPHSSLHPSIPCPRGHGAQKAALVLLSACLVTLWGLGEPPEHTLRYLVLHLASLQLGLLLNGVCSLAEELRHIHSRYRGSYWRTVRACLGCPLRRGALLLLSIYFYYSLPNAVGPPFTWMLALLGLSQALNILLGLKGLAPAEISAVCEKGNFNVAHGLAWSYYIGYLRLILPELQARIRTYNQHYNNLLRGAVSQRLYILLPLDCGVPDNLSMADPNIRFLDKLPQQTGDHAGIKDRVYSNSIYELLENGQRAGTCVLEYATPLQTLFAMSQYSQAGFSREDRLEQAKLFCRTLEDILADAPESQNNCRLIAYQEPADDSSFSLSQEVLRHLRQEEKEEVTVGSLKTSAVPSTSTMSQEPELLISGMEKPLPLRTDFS

Key:
[1] = target: STING, wild-type, stably expressed in DLD1 cells (human) (UniProt Q86WV6); assay: affinity purification with mass spectrometry; STING, wild-type or R281Q, stably expressed in DLD1 cells; STING interactome by nano LC/MS/MS, label-free quantification
[2] = target: constitutively activated STING (R281Q), stably expressed in DLD1 cells (human) (UniProt Q86WV6); assay: as above

B1: Zyxin, endogenous in DLD1 cells (protein, UniProt Q15942 1-572)
chain: MAAPRPSPAISVSVSAPAFYAPQKKFGPVVAPKPKVNPFRPGDSEPPPAPGAQRAQMGRVGEIPPPPPEDFPLPPPPLAGDGDDAEGALGGAFPPPPPPIEESFPPAPLEEEIFPSPPPPPEEEGGPEAPIPPPPQPREKVSSIDLEIDSLSSLLDDMTKNDPFKARVSSGYVPPPVATPFSSKSSTKPAAGGTAPLPPWKSPSSSQPLPQVPAPAQSQTQFHVQPQPQPKPQVQLHVQSQTQPVSLANTQPRGPPASSPAPAPKFSPVTPKFTPVASKFSPGAPGGSGSQPNQKLGHPEALSAGTGSPQPPSFTYAQQREKPRVQEKQHPVPPPAQNQNQVRSPGAPGPLTLKEVEELEQLTQQLMQDMEHPQRQNVAVNELCGRCHQPLARAQPAVRALGQLFHIACFTCHQCAQQLQGQQFYSLEGAPYCEGCYTDTLEKCNTCGEPITDRMLRATGKAYHPHCFTCVVCARPLEGTSFIVDQANRPHCVPDYHKQYAPRCSVCSEPIMPEPGRDETVRVVALDKNFHMKCYKCEDCGKPLSIEADDNGCFPLDGHVLCRKCHTARAQT
[1]
  binding: binds
[2]
  binding: binds
